Entries after “also recorded” stand apart in the source; their conditions may differ.
Test system: C57BL/6J mice
Assay: Context- and tone-dependent Pavlovian fear conditioning, icv. injection
Type: in vivo
Conditions: daily icv. injection 5 μg/mouse for 7 days
Description: A fundamental type of learning is associative learning that can be analyzed in rodents using the pavlovian fear conditioning paradigm (Fendt and Fanselow, 1999; Fischer et al., 2003). As fear conditioning is a robust and commonly used method to analyze learning and allows to delineate the involvement of distinct brain structures in the learning process, we choose this paradigm to investigate the effect of reveratrol on learning. The principle of Pavlovian fear conditioning is as follows. During the training procedure mice are exposed to a novel context (context 1), consisting of an observation chamber with defined lightning, odor, background noise and geometry. After exploring this novel environment for 180 s the animals are exposed to a tone for 30 s followed by a mild electric foot shock for 2 s. On the basis of associative learning mice display aversive freezing behavior during a memory test consisting of re-expose to the conditioning context 24 h after the training. […] Tone-dependent fear memories can be analyzed by presenting the tone in context 2. Freezing is an inborn behavior that rodents express in threatening situations. […] Therefore, freezing behavior is commonly used to quantify the amount of learning. […] The animals were trained by context- and tone-dependent fear conditioning 24 h after the last icv. injection and memory retention was analyzed the following day (see FIG. 1A). […]

What does the source list for `Oc1ccc(C=Cc2cc(O)cc(O)c2)cc1` [resveratrol, 3,5,4′-tri-hydroxystilbene]?
explorative behavior (distance traveled during training): did not affect; pain sensation (activity during electric foot shock): did not affect; also recorded: not affected

Source: US9241916B2, “Cognitive performance with sirtuin activators” (President and Fellows of Harvard College, priority 2005, dated 2016)
